PubChem BioAssay AID1259264 – Sanger Institute, 2017

- Aim: 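Kinases needed for CL40 growth and those that boost anti-cancer drug killing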 (primary screen)
- Cell system: CL40 human colorectal cancer cells
- Reagents: siRNA pool against human genes
- Conditions: DMSO, or an anchor drug: BYL719 at 1 µM, cetuximab at 5 µg/ml, or trametinib at 10 nM
- Measured: 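Replicate-mean viability versus a non-targeting pool, robust z-score from control wells, and mean synergy with BYL719 1 µM, cetuximab 5 µg/ml or trametinib 10 nM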
- Scale: robust z-score, siRNA alone and viability, siRNA alone: higher = more viable cells
- Rule for the call: 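Essential call: siRNA with no drug reaches a robust z under -3 (low cell count); drug synergy scores do not affect it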
- Meaning of the calls: active = essential (lowers viability alone); inactive = not essential
Here is a random part of 794 reagents. 15 of them (1.9%) were called active. 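Calls rest on knock-down alone at z-score below -3; synergy scores with the three drugs do not decide them.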 Entries without a mark were called inactive. No viability above 1 is reported: the scale is capped. Further read-outs or replicates are left out here. Reagent sequences are not shown. The record does not give: the amount of reagent, the time to read-out.

For SRPK2 [SID56478890] the deposit lists robust z-score, siRNA alone 0.194; viability, siRNA alone (fraction of control) = 0.975.
Against HK1 [SID56479165], the entry reads robust z-score, siRNA alone 0.0498; viability, siRNA alone (fraction of control) = 0.965.
With knock-down of EEF2K [SID152154873], the record shows robust z-score, siRNA alone 0.539; viability, siRNA alone (fraction of control) = 1.
PDK2 [SID56478952] scored robust z-score, siRNA alone 0.114; viability, siRNA alone (fraction of control) = 0.97.
PLK1 [SID56478632] showed robust z-score, siRNA alone -6.4 (active); viability, siRNA alone (fraction of control) = 0.503.
With knock-down of PRKCA [SID56478672] the results were robust z-score, siRNA alone -1.87; viability, siRNA alone (fraction of control) = 0.827.
With knock-down of UHMK1 [SID152150381] the results were robust z-score, siRNA alone 0.378; viability, siRNA alone (fraction of control) = 0.988.
For MAP3K1 [SID152150888], the entry reads robust z-score, siRNA alone 0.197; viability, siRNA alone (fraction of control) = 0.975.
After knock-down of CSNK1A1 [SID152148946] the results were robust z-score, siRNA alone 0.539; viability, siRNA alone (fraction of control) = 1.
Silencing of ULK3 [SID152148646] resulted in: robust z-score, siRNA alone -0.111; viability, siRNA alone (fraction of control) = 0.953.
With knock-down of TWF2 [SID56478547], the screen gave robust z-score, siRNA alone 0.328; viability, siRNA alone (fraction of control) = 0.985.
After knock-down of GNAS [SID152155794] the results were robust z-score, siRNA alone 0.539; viability, siRNA alone (fraction of control) = 1.
Against TAOK3 [SID152152167], the values are robust z-score, siRNA alone 0.387; viability, siRNA alone (fraction of control) = 0.989.
NAGK [SID135621243] scored robust z-score, siRNA alone -2.97; viability, siRNA alone (fraction of control) = 0.749.
After knock-down of ADCK5 [SID56479281], the screen gave robust z-score, siRNA alone 0.323; viability, siRNA alone (fraction of control) = 0.985.
With knock-down of GK2 [SID56479273] the results were robust z-score, siRNA alone 0.0362; viability, siRNA alone (fraction of control) = 0.964.
STK11 [SID152153881] scored robust z-score, siRNA alone -2; viability, siRNA alone (fraction of control) = 0.818.
After knock-down of SMC1A [SID134311995], the record shows robust z-score, siRNA alone 0.539; viability, siRNA alone (fraction of control) = 1.
With knock-down of PRPS1 [SID56479145] the results were robust z-score, siRNA alone 0.539; viability, siRNA alone (fraction of control) = 1.
After knock-down of MAGI2 [SID135622325], the screen gave robust z-score, siRNA alone 0.539; viability, siRNA alone (fraction of control) = 1.
PIP5K1A [SID56478868] scored robust z-score, siRNA alone -0.821; viability, siRNA alone (fraction of control) = 0.902.
Knock-down of CDK17 [SID56478886] resulted in: robust z-score, siRNA alone -1.85; viability, siRNA alone (fraction of control) = 0.829.
Against PKIA [SID56479258] the deposit lists robust z-score, siRNA alone -0.2; viability, siRNA alone (fraction of control) = 0.947.
After knock-down of KRAS [SID134310727], the screen gave robust z-score, siRNA alone -4.89 (active); viability, siRNA alone (fraction of control) = 0.611.
With knock-down of DCK [SID56479088] the results were robust z-score, siRNA alone -5.34 (active); viability, siRNA alone (fraction of control) = 0.579.
VRK1 [SID152147475] showed robust z-score, siRNA alone -4.52 (active); viability, siRNA alone (fraction of control) = 0.638.
